The source of these data is article PMC8025031.

Construct, isoform or probe ends are uncertain for at least one entry. For some assays here: Negatives hold for the conditions tested. For some assays here: The comparison behind a weaker result is the experiment's own reference, which may not be listed here.

Common to all, as to assay: EMSA
In data set [1] the test system is DDX43 deltaKH (Bombyx mori (BmN4 cDNA)). As to conditions: 1 mM Mg2+ (hardly bound), EMSA: 25 mM HEPES-KOH pH 7.3, 50 mM K-acetate, 1 mM Mg-acetate, 1 mM DTT, 5 nM RNA, 0.5 uM His-DDX43, +/-0.1 mM ATP, 26 C 10 min. Ago3 release: 20 mM HEPES-KOH pH 7.3, recombinant protein, protein details: His (pET-47b), label: 5' 32P. In general terms: A gel shift assay detects complexes by their altered migration in electrophoresis.

The target of data set [2] is DDX43 D399A (Bombyx mori (BmN4 cDNA)) (UniProt H9JL58). To be noted: 1 mM Mg2+, EMSA: 25 mM HEPES-KOH pH 7.3, 50 mM K-acetate, 1 mM Mg-acetate, 1 mM DTT, 5 nM RNA, 0.5 uM His-DDX43, +/-0.1 mM ATP, 26 C 10 min. Ago3 release: 20 mM HEPES-KOH pH 7.3, recombinant protein, protein details: His (pET-47b), label: 5' 32P.
In data set [3] the target is DDX43 E400Q (Bombyx mori (BmN4 cDNA)) (UniProt H9JL58). As to conditions: 1 mM Mg2+, EMSA: 25 mM HEPES-KOH pH 7.3, 50 mM K-acetate, 1 mM Mg-acetate, 1 mM DTT, 5 nM RNA, 0.5 uM His-DDX43, +/-0.1 mM ATP, 26 C 10 min. Ago3 release: 20 mM HEPES-KOH pH 7.3, recombinant protein, protein details: His (pET-47b), label: 5' 32P.
Data set [4] concerns the target DDX43 WT (Bombyx mori (BmN4 cDNA)) (UniProt H9JL58). To be noted: EMSA: 25 mM HEPES-KOH pH 7.3, 50 mM K-acetate, 1 mM Mg-acetate, 1 mM DTT, 5 nM RNA, 0.5 uM His-DDX43, +/-0.1 mM ATP, 26 C 10 min. Ago3 release: 20 mM HEPES-KOH pH 7.3, recombinant protein, protein details: His (pET-47b), label: 5' 32P.

For “GGUCUGAUUUCGAUCUGGUUCCCUGGAACAAAAGUGGCAG [40nt RNA]”, the binding result in data set [1] (0.1 mM ATP) is recorded as “no binding”; in data set [1] (no ATP) it was “no binding”; in data set [2] (0.1 mM ATP), “binds more weakly”; in data set [2] (no ATP) it was “binds more weakly”; in data set [3] (0.1 mM ATP) it was “binds”; in data set [3] (no ATP), “no binding”. The binding result is “no binding” in data set [4] (0.1 mM ATP, 1 mM Mg2+ (dissociated)) and “binds” in data set [4] (no ATP, 1 mM Mg2+).
